Experimental data published in article PMC6554977.
No constants are given. Whether binding was seen depends on the method and setting. In cells and extracts the contact can be indirect. Some entries that bind do so weakly or less than the wild type.

The chains behind the UniProt entries cited, without tags or fusion partners. Where a name states a change or a piece, a line headed by the entry shows the natural chain unless it says otherwise.
UniProt P35222: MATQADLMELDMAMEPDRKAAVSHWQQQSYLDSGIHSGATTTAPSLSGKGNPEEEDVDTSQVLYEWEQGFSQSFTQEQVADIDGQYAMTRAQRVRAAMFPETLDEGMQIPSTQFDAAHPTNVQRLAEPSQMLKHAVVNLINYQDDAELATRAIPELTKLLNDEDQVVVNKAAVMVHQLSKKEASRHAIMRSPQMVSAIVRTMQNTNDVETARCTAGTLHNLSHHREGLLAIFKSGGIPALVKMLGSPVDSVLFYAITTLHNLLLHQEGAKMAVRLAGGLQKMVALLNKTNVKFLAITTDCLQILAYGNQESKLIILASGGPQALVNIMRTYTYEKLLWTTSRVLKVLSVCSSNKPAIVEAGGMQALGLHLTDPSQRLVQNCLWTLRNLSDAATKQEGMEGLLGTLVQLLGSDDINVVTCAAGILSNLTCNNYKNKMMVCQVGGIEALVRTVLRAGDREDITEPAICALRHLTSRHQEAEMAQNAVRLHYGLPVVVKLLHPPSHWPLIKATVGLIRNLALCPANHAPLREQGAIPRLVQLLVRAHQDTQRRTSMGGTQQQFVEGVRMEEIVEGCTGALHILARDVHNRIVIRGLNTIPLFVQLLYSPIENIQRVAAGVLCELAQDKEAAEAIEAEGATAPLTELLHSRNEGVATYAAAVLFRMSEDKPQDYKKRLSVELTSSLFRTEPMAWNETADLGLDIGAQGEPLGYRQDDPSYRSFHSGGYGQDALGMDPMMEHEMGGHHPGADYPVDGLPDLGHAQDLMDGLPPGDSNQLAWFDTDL

Biological target: β-catenin (human (endogenous in T47D and MDA-MB-231)) (UniProt P35222)
Assay: co-IP; Pierce Co-IP kit, lysates of T47D and MDA-MB-231 cells, detected by western blotting; also after EGF treatment of the cells (interaction decreased); which protein was precipitated is not told

B1: Adherens junctions-associated protein 1 (AJAP1) (protein, UniProt Q9UKB5 44-411)
chain: LGPGPEFWLLPRSPPRPPRLWSFRSGQPARVPAPVWSPRPPRVERIHGQMQMPRARRAHRPRDQAAALVPKAGLAKPPAAAKSSPSLASSSSSSSSAVAGGAPEQQALLRRGKRHLQGDGLSSFDSRGSRPTTETEFIAWGPTGDEEALESNTFPGVYGPTTVSILQTRKTTVAATTTTTTTATPMTLQTKGFTESLDPRRRIPGGVSTTEPSTSPSNNGEVTQPPRILGEASGLAVHQIITITVSLIMVIAALITTLVLKNCCAQSGNTRRNSHQRKTNQQEESCQNLTDFPSARVPSSLDIFTAYNETLQCSHECVRASVPVYTDETLHSTTGEYKSTFNGNRPSSSDRHLIPVAFVSEKWFEISC
In the case of B1, the binding is reported as “binds”.
